{
  "sequences": {"note": "Amino acid sequences for entries named in this document (tags omitted).", "UniProt Q61188, whole entry": "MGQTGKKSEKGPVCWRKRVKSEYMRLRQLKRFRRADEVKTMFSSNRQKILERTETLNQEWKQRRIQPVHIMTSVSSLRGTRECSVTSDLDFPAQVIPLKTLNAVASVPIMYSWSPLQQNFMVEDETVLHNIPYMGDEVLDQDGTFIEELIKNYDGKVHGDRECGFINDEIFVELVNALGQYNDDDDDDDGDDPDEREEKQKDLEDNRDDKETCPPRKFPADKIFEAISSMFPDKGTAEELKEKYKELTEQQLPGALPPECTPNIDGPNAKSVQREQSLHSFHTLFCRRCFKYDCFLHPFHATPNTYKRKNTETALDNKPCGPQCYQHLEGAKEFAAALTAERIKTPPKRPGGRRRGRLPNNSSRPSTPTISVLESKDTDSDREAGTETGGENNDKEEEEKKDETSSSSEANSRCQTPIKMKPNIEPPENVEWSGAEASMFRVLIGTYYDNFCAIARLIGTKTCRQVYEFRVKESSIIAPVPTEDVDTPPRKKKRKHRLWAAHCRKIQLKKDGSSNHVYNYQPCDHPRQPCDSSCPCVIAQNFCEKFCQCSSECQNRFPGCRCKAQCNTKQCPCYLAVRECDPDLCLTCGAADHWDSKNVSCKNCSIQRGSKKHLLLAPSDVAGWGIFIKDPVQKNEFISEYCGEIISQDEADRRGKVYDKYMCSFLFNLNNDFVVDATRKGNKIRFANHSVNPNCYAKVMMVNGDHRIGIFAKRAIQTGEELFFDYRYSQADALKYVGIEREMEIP"},
  "source": "ChEMBL document CHEMBL5674883",
  "about": "“The Heterochromatin Landscape in Migrating Cells and the Importance of H3K27me3 for Associated Transcriptome Alterations” (Cells, 2018)",
  "type_in_all_cases": "cell-based",
  "key": {"[1]": {"target": "T1, RNA polymerase II (Mus musculus) (UniProt P08775+Q8CFI7+P97760+A0A3Q4L2S8+Q80UW8+P61219+P62488+Q923G2+P60898+O08740+Q63871+P62876)", "assay": "Inhibition of RNA polymerase II in mouse B16-F1 migrating cells assessed as fold change in Thrap3-RNA stability at 0.1 mM measured by ChIP-seq analysis relative to control cells"}, "[2]": {"target": "T1, RNA polymerase II (Mus musculus)", "assay": "Inhibition of RNA polymerase II in mouse B16-F1 migrating cells assessed as fold change in Mier1-RNA stability at 0.1 mM measured by ChIP-seq analysis relative to control cells"}, "[3]": {"target": "T1, RNA polymerase II (Mus musculus)", "assay": "Inhibition of RNA polymerase II in mouse B16-F1 migrating cells assessed as fold change in Naa50-RNA stability at 0.1 mM measured by ChIP-seq analysis relative to control cells"}, "[4]": {"target": "T1, RNA polymerase II (Mus musculus)", "assay": "Inhibition of RNA polymerase II in mouse B16-F1 migrating cells assessed as fold change in Smpd1-RNA stability at 0.1 mM measured by ChIP-seq analysis relative to control cells"}, "[5]": {"target": "T1, RNA polymerase II (Mus musculus)", "assay": "Inhibition of RNA polymerase II in mouse B16-F1 migrating cells assessed as fold change in Smarca5-RNA stability at 0.1 mM measured by ChIP-seq analysis relative to control cells"}, "[6]": {"target": "T1, RNA polymerase II (Mus musculus)", "assay": "Inhibition of RNA polymerase II in mouse B16-F1 migrating cells assessed as fold change in Yif1a-RNA stability at 0.1 mM measured by ChIP-seq analysis relative to control cells"}, "[7]": {"target": "T1, RNA polymerase II (Mus musculus)", "assay": "Inhibition of RNA polymerase II in mouse B16-F1 migrating cells assessed as fold change in Abce1-RNA stability at 0.1 mM measured by ChIP-seq analysis relative to control cells"}, "[8]": {"target": "T1, RNA polymerase II (Mus musculus)", "assay": "Inhibition of RNA polymerase II in mouse B16-F1 migrating cells assessed as fold change in Zbtb2-RNA stability at 0.1 mM measured by ChIP-seq analysis relative to control cells"}, "[9]": {"target": "T1, RNA polymerase II (Mus musculus)", "assay": "Inhibition of RNA polymerase II in mouse B16-F1 migrating cells assessed as fold change in Smc1a-RNA stability at 0.1 mM measured by ChIP-seq analysis relative to control cells"}, "[10]": {"target": "T1, RNA polymerase II (Mus musculus)", "assay": "Inhibition of RNA polymerase II in mouse B16-F1 migrating cells assessed as fold change in 9330182L06Rik-RNA stability at 0.1 mM measured by ChIP-seq analysis relative to control cells"}, "[11]": {"target": "T1, RNA polymerase II (Mus musculus)", "assay": "Inhibition of RNA polymerase II in mouse B16-F1 migrating cells assessed as fold change in Cdh19-RNA stability at 0.1 mM measured by ChIP-seq analysis relative to control cells"}, "[12]": {"target": "T1, RNA polymerase II (Mus musculus)", "assay": "Inhibition of RNA polymerase II in mouse B16-F1 migrating cells assessed as fold change in Polr2j-RNA stability at 0.1 mM measured by ChIP-seq analysis relative to control cells"}, "[13]": {"target": "T1, RNA polymerase II (Mus musculus)", "assay": "Inhibition of RNA polymerase II in mouse B16-F1 migrating cells assessed as fold change in Grina-RNA stability at 0.1 mM measured by ChIP-seq analysis relative to control cells"}, "[14]": {"target": "T1, RNA polymerase II (Mus musculus)", "assay": "Inhibition of RNA polymerase II in mouse B16-F1 migrating cells assessed as fold change in Cpne3-RNA stability at 0.1 mM measured by ChIP-seq analysis relative to control cells"}, "[15]": {"target": "T1, RNA polymerase II (Mus musculus)", "assay": "Inhibition of RNA polymerase II in mouse B16-F1 migrating cells assessed as fold change in Zfp984-RNA stability at 0.1 mM measured by ChIP-seq analysis relative to control cells"}, "[16]": {"target": "T1, RNA polymerase II (Mus musculus)", "assay": "Inhibition of RNA polymerase II in mouse B16-F1 migrating cells assessed as fold change in Csnk2b-RNA stability at 0.1 mM measured by ChIP-seq analysis relative to control cells"}, "[17]": {"target": "T1, RNA polymerase II (Mus musculus)", "assay": "Inhibition of RNA polymerase II in mouse B16-F1 migrating cells assessed as fold change in Atad1-RNA stability at 0.1 mM measured by ChIP-seq analysis relative to control cells"}, "[18]": {"target": "T1, RNA polymerase II (Mus musculus)", "assay": "Inhibition of RNA polymerase II in mouse B16-F1 migrating cells assessed as fold change in Slc25a1-RNA stability at 0.1 mM measured by ChIP-seq analysis relative to control cells"}, "[19]": {"target": "T1, RNA polymerase II (Mus musculus)", "assay": "Inhibition of RNA polymerase II in mouse B16-F1 migrating cells assessed as fold change in Znhit1-RNA stability at 0.1 mM measured by ChIP-seq analysis relative to control cells"}, "[20]": {"target": "T1, RNA polymerase II (Mus musculus)", "assay": "Inhibition of RNA polymerase II in mouse B16-F1 migrating cells assessed as fold change in Zfp597-RNA stability at 0.1 mM measured by ChIP-seq analysis relative to control cells"}, "[21]": {"target": "T1, RNA polymerase II (Mus musculus)", "assay": "Inhibition of RNA polymerase II in mouse B16-F1 migrating cells assessed as fold change in Slc35b2-RNA stability at 0.1 mM measured by ChIP-seq analysis relative to control cells"}, "[22]": {"target": "Histone-lysine N-methyltransferase EZH2 (Mus musculus) (UniProt Q61188)", "assay": "Inhibition of EZH2 in mouse B16-F1 migrating cells assessed as fold change in H3K27me3-buffered regulated Rttn-mRNA expression at 3 uM measured by ChIP-seq analysis relative to control cells"}, "[23]": {"target": "Histone-lysine N-methyltransferase EZH2 (Mus musculus) (UniProt Q61188)", "assay": "Inhibition of EZH2 in mouse B16-F1 migrating cells assessed as fold change in H3K27me3-buffered regulated Tcf4-mRNA expression at 3 uM measured by ChIP-seq analysis relative to control cells"}, "[24]": {"target": "Histone-lysine N-methyltransferase EZH2 (Mus musculus) (UniProt Q61188)", "assay": "Inhibition of EZH2 in mouse B16-F1 migrating cells assessed as fold change in H3K27me3-buffered regulated Foxc1-mRNA expression at 3 uM measured by ChIP-seq analysis relative to control cells"}, "[25]": {"target": "Histone-lysine N-methyltransferase EZH2 (Mus musculus) (UniProt Q61188)", "assay": "Inhibition of EZH2 in mouse B16-F1 migrating cells assessed as fold change in H3K27me3-buffered regulated Mmp11-mRNA expression at 3 uM measured by ChIP-seq analysis relative to control cells"}, "[26]": {"target": "Histone-lysine N-methyltransferase EZH2 (Mus musculus) (UniProt Q61188)", "assay": "Inhibition of EZH2 in mouse B16-F1 migrating cells assessed as fold change in H3K27me3-buffered regulated Shc4-mRNA expression at 3 uM measured by ChIP-seq analysis relative to control cells"}, "[27]": {"target": "Histone-lysine N-methyltransferase EZH2 (Mus musculus) (UniProt Q61188)", "assay": "Inhibition of EZH2 in mouse B16-F1 migrating cells assessed as fold change in H3K27me3-buffered regulated Rnaset2b-mRNA expression at 3 uM measured by ChIP-seq analysis relative to control cells"}, "[28]": {"target": "Histone-lysine N-methyltransferase EZH2 (Mus musculus) (UniProt Q61188)", "assay": "Inhibition of EZH2 in mouse B16-F1 migrating cells assessed as fold change in H3K27me3-buffered regulated Btd-mRNA expression at 3 uM measured by ChIP-seq analysis relative to control cells"}, "[29]": {"target": "Histone-lysine N-methyltransferase EZH2 (Mus musculus) (UniProt Q61188)", "assay": "Inhibition of EZH2 in mouse B16-F1 migrating cells assessed as fold change in H3K27me3-buffered regulated BC022687-mRNA expression at 3 uM measured by ChIP-seq analysis relative to control cells"}, "[30]": {"target": "Histone-lysine N-methyltransferase EZH2 (Mus musculus) (UniProt Q61188)", "assay": "Inhibition of EZH2 in mouse B16-F1 migrating cells assessed as fold change in H3K27me3-buffered regulated Nudt17-mRNA expression at 3 uM measured by ChIP-seq analysis relative to control cells"}},
  "note": "Further values from the same series stand in other lists.",
  "data": [
    {"smiles": "OC[C@H]1O[C@@H](n2cnc3cc(Cl)c(Cl)cc32)[C@H](O)[C@@H]1O", "values": [
      {"measurement": "log2FC", "setting": "[1]", "result": -0.47},
      {"measurement": "log2FC", "setting": "[2]", "result": -0.86},
      {"measurement": "log2FC", "setting": "[3]", "result": -0.49},
      {"measurement": "log2FC", "setting": "[4]", "result": 0.54},
      {"measurement": "log2FC", "setting": "[5]", "result": -0.92},
      {"measurement": "log2FC", "setting": "[6]", "result": 0.44},
      {"measurement": "log2FC", "setting": "[7]", "result": -0.58},
      {"measurement": "log2FC", "setting": "[8]", "result": -0.48},
      {"measurement": "log2FC", "setting": "[9]", "result": -0.72},
      {"measurement": "log2FC", "setting": "[10]", "result": -0.68},
      {"measurement": "log2FC", "setting": "[11]", "result": -0.52},
      {"measurement": "log2FC", "setting": "[12]", "result": 0.45},
      {"measurement": "log2FC", "setting": "[13]", "result": 0.56},
      {"measurement": "log2FC", "setting": "[14]", "result": -0.55},
      {"measurement": "log2FC", "setting": "[15]", "result": -1.08},
      {"measurement": "log2FC", "setting": "[16]", "result": 0.39},
      {"measurement": "log2FC", "setting": "[17]", "result": -0.49},
      {"measurement": "log2FC", "setting": "[18]", "result": 0.65},
      {"measurement": "log2FC", "setting": "[19]", "result": 0.51},
      {"measurement": "log2FC", "setting": "[20]", "result": -1.12},
      {"measurement": "log2FC", "setting": "[21]", "result": 0.43}
    ]},
    {"smiles": "CCCc1cc(C)[nH]c(=O)c1CNC(=O)c1cc(-c2ccnc(N3CCN(C)CC3)c2)cc2c1cnn2C(C)C", "values": [
      {"measurement": "log2FC", "setting": "[22]", "result": -0.53},
      {"measurement": "log2FC", "setting": "[23]", "result": -0.47},
      {"measurement": "log2FC", "setting": "[24]", "result": -0.42},
      {"measurement": "log2FC", "setting": "[25]", "result": -0.76},
      {"measurement": "log2FC", "setting": "[26]", "result": -0.39},
      {"measurement": "log2FC", "setting": "[27]", "result": 0.39},
      {"measurement": "log2FC", "setting": "[28]", "result": 0.48},
      {"measurement": "log2FC", "setting": "[29]", "result": 0.48},
      {"measurement": "log2FC", "setting": "[30]", "result": 0.65}
    ]}
  ]
}
